Data as given in PubChem BioAssay AID602203 (INSERM, 2012)
Aim: 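Follow-up of knock-downs that sensitize or protect A549 cells against cisplatin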 (follow-up of hits). Cell system: human A549 lung cancer cells. Reagents: siRNA pair against human genes. Conditions: cisplatin at a dose killing half of control-siRNA cells, given 48 h after transfection. Read-out: 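Two siRNAs per gene scored +1 protective, -1 sensitizing, 0 if toxic by LDH or growth-reducing by WST-1; cisplatin given 48 h later at 50% control kill; scores summed, mean death shift versus control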. Scale: summed siRNA score for cisplatin death: higher = more siRNAs reduced cisplatin-induced cell death; change in cisplatin death versus control: higher = fewer cells died than in control. Hit rule: In these data the active calls have summed siRNA score for cisplatin death at about -3 or lower, or at about 3 or higher.
This is a random part of 999 deposited reagents. 85 of them (8.5%) were called active. 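Unclear how single-siRNA scores of -1, 0 or +1 give the printed -4 to 4 range; calls lie near -3 or 3 and beyond.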 A number with no mark means an inactive call. Reagent sequences are not shown. Not given: the amount of reagent, the time to read-out, the dose of the treatment.

gene symbol | summed siRNA score for cisplatin death | change in cisplatin death versus control (percentage points)
GALNT1 | 0 | –
SECISBP2L | -1 | –
TGFBR2 | 0 | –
SLC37A4 | -2 | –
TFEC | 1 | –
LOC344328 | 1 | –
WASF1 | 0 | –
SIGLEC7 | -1 | –
OXT | 1 | –
TUBB3 | -1 | –
ANGPTL3 | -2 | –
NAMPT | -1 | –
DNM1P28 | 1 | –
PSMD13 | 1 | –
LINC00336 | 1 | –
LOC440336 | 0 | –
TRIP4 | 3 (active) | 19
RPGRIP1 | -1 | –
MARVELD3 | -1 | –
IL1R2 | 1 | –
NOP16 | 1 | –
JPH3 | -1 | –
RUFY4 | -1 | –
OR2AG2 | 0 | –
BCAN | 0 | –
LOC441073 | 2 | –
OR2T12 | 0 | –
NECAP2 | -2 | –
STAT6 | -2 | –
LINC01011 | 2 | –
JAM3 | 0 | –
FBXO24 | 0 | –
STK39 | 2 | –
CUL1 | -2 | –
ATP6V1C1 | 2 | –
SLC2A5 | -2 | –
FBXO8 | 2 | –
CENPX | 2 | –
RIPK4 | 0 | –
MGC48637 | 0 | –
OR1S1 | 0 | –
SNAPC5 | -1 | –
ITPKB | 0 | –
LINC00921 | 1 | –
LOC202546 | 0 | –
CFAP54 | 1 | –
HDLBP | 3 (active) | 8.02
ARIH2 | -2 | –
KRT33B | -1 | –
RNF103 | -1 | –
CEP135 | 0 | –
UBE3C | -1 | –
MAT2A | -3 (active) | -13.5
IGHV3OR16-17 | -2 | –
PLA1A | -1 | –
FBP1 | -2 | –
GPR148 | 1 | –
BPIFB1 | -1 | –
GLB1 | -1 | –
LGI3 | 1 | –
MBOAT2 | 0 | –
EVC | 1 | –
RETNLB | -2 | –
ARX | 0 | –
RASSF1 | -1 | –
ABCB8 | -1 | –
OSTCP1 | -3 (active) | -8.85
LOC440029 | 0 | –
HYI | -2 | –
ATOX1 | 0 | –
MUC3B | 1 | –
LOC89231 | -1 | –
GTF2H4 | -2 | –
USP51 | -1 | –
NUP62 | 0 | –
EPN2 | -2 | –
RSPH9 | 0 | –
LOC401676 (retired record) | -1 | –
FAM89B | -2 | –
DEFB4A | -3 (active) | -13.1
UBAC1 | -1 | –
SLC5A2 | 1 | –
GYS1 | -1 | –
AAR2 | -2 | –
HSD17B14 | 0 | –
TRAPPC4 | 0 | –
LOC441992 | -1 | –
PHPT1 | -1 | –
VRK2 | -1 | –
TTC4 | -1 | –
ACTE1P | 1 | –
HS6ST1 | -1 | –
S100A7A | 0 | –
CDC7 | -2 | –
LOC283389 | -1 | –
APOA1 | 0 | –
LOC440967 | 1 | –
ASCL2 | 1 | –
STT3B | 1 | –
SLC9A4 | 0 | –
AMELY | 1 | –
RBKS | 0 | –
LOC390992 | -2 | –
SLC27A6 | 2 | –
RTEL1 | 0 | –
FAM240C | 0 | –
CNTRL | -1 | –
